The exact form of at least one protein or probe is not confirmed. Negatives hold for the conditions tested.

For this data set, the system named is serum albumin (HSA in Results and figures + Methods state purchased bovine serum albumin, Sigma A7030). Put plainly: UV absorbance titration. The following applies: off-target, 6 uM albumin in phosphate buffer (10 mM) pH 7.4, 37 C, excitation 290 nm, emission 300-400 nm, 90 s after each aptamer addition, commercial protein, single-stranded DNA.

For the sequence “ACTTTTGAATGTGGCAACAAATTCGACAGG [1.5 M Short]”, the binding result (6 nm shift, suggested no complex, dynamic quenching) is “no binding”.

For “GGGAGACAAGAATAAACGCTCAAATGGACTTTTGAATGTGGCAACAAATTCGACAGGAGGCTCACAACAGGC [1.5 M Long]”, the binding result (20 nm shift, suggested ground-state complex, static quenching) is given as “binds”.
